The target of test [1] is Axin1 (endogenous) (human (endogenous in HEK293T, SW480, LS174T)) (UniProt O15169). The test is described as follows: co-IP; endogenous proteins, SW480 colorectal cancer cells (APC truncated at Q1338); anti-Axin1 precipitation, protein G beads.
The target is the same in test [2]. Kind of test: co-IP; endogenous proteins, HEK293T cells untreated or treated with Wnt3a-conditioned medium; lysis in 100 mM NaCl, 50 mM Tris pH 7.5, 0.25% Triton X-100; 1 µg antibody (anti-Axin1 or anti-β-catenin), protein G beads, 4°C.
In test [3] the target is β-catenin (endogenous, total) (human (endogenous in HEK293T)) (UniProt P35222). Described as above.

The chains behind the UniProt entries cited, without tags or fusion partners.
UniProt O15169: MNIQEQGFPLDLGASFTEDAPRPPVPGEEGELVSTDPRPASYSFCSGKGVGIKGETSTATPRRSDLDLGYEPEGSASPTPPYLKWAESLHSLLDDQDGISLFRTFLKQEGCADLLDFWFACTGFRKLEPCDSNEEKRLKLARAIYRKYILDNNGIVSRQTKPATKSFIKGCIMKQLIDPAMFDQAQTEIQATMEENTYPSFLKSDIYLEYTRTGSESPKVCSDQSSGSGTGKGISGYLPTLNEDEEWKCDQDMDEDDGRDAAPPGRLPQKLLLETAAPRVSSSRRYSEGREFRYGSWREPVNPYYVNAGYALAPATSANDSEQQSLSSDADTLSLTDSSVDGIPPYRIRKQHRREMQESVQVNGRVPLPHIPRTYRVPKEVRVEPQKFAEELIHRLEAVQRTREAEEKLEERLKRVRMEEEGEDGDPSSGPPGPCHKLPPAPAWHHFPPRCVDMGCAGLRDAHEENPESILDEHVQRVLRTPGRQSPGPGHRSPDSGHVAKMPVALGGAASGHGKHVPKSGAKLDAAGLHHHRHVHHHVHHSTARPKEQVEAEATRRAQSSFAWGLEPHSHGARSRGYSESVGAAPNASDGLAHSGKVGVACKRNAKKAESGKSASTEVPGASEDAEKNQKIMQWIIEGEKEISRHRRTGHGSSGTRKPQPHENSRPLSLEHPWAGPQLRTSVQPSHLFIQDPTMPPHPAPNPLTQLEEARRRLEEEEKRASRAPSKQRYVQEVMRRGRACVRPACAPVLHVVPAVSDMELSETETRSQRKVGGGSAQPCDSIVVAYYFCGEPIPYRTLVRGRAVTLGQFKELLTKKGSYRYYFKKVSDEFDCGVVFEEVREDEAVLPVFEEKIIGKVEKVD
UniProt P35222: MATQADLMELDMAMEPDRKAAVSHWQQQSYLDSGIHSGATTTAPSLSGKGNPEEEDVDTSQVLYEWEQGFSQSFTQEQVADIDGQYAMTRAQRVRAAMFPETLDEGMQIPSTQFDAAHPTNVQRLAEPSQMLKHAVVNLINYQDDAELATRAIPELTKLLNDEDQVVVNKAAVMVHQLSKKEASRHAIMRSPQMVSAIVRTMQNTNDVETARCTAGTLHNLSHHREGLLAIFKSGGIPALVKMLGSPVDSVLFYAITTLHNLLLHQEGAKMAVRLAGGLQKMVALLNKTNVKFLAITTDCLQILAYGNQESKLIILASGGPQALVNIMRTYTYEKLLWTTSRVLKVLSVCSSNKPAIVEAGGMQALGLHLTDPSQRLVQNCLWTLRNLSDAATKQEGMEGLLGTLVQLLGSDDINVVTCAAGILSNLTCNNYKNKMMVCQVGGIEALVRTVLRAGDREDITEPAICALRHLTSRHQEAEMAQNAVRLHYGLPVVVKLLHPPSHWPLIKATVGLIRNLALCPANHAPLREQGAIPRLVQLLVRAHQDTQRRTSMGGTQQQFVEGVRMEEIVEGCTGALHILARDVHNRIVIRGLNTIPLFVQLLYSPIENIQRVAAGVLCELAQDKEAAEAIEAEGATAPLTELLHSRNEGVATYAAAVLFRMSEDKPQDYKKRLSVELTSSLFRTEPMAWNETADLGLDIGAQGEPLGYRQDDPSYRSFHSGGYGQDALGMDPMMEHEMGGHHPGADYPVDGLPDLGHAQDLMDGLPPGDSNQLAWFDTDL

These are yes or no findings as the source states them, for the method shown. In cells and extracts the contact can be indirect. Some binding calls cover weakened binding; strength is not graded here.

In the case of “phosphorylated β-catenin (pS33/pS37/pT41) (from UniProt P35222 1-781)”, the binding result in test [1] and in test [2] was “binds” throughout.
With “Axin1 (endogenous) (from UniProt O15169 1-862)”, the binding entry in test [3] is “binds”.
Take “β-catenin (endogenous, total) (from UniProt P35222 1-781)”: the binding result in test [2] is recorded as “binds”.
On to “non-phosphorylated β-catenin (from UniProt P35222 1-781)”, for which the binding entry in test [1] and in test [2] was “binds” throughout.

For the origin of these results see publication PMC4248064.
